In publication PMC10928159:
Results are given in words; binding and its absence hold for the method and conditions named. In cells and extracts the contact can be indirect. These calls come from enrichment with a bait or labelling near it, and not all partners need be listed.

By UniProt entry, the sequences of proteins in these tests, tags left out.
UniProt Q93009: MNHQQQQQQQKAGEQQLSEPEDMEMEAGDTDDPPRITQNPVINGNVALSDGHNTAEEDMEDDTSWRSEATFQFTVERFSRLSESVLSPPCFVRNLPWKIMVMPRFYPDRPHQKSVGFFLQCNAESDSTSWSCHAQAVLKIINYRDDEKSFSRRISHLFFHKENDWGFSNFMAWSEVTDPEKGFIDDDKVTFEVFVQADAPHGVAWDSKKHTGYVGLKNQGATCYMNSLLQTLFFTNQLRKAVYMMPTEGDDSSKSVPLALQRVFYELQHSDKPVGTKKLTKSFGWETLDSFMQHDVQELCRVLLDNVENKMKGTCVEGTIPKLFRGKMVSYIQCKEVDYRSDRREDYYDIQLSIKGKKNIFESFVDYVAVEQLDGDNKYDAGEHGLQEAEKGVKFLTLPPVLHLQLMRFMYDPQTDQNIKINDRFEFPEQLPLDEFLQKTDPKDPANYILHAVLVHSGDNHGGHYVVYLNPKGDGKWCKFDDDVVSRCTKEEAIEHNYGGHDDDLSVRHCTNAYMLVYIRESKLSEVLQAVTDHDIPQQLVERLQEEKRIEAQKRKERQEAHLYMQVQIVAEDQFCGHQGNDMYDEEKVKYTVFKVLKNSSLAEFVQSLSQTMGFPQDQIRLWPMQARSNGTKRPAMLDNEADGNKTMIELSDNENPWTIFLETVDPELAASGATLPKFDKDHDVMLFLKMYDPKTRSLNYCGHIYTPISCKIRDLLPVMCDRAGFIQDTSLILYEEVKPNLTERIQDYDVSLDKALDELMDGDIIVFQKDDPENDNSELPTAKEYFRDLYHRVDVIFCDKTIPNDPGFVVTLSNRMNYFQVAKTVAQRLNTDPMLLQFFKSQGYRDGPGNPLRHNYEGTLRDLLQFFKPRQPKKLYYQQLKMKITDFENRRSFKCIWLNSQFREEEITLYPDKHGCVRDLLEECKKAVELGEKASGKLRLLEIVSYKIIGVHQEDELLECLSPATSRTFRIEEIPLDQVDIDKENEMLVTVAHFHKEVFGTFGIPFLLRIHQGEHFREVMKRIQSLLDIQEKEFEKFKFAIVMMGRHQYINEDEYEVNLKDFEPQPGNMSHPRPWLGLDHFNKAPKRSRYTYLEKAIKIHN
UniProt Q96P20: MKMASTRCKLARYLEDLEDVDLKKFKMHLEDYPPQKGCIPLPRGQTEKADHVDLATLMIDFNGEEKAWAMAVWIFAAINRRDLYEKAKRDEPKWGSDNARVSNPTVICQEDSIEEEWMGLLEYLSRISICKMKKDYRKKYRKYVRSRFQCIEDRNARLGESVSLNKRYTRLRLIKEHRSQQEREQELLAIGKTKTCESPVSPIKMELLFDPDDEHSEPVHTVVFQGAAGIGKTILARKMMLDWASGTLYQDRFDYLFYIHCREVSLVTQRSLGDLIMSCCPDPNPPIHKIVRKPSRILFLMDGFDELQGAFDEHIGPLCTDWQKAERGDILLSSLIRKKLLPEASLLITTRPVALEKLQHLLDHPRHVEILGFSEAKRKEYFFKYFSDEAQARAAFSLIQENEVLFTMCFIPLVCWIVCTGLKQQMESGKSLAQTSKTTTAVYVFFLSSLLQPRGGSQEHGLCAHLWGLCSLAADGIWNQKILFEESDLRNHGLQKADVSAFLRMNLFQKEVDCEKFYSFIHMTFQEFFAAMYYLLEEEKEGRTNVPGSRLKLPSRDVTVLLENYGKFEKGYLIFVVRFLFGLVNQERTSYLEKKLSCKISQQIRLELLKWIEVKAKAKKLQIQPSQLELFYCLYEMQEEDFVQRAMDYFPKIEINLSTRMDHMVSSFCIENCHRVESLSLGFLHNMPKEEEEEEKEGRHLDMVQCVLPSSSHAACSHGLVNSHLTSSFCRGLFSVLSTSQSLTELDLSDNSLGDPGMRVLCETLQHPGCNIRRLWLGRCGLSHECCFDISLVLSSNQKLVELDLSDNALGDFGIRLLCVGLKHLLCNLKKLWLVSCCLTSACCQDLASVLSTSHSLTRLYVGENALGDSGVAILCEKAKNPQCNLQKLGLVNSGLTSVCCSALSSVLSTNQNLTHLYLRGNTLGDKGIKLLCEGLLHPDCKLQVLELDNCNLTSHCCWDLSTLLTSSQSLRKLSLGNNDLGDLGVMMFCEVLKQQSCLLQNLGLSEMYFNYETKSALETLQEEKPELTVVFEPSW

Molecular target: Ubiquitin-specific protease 7 (human (endogenous in U2OS)) (UniProt Q93009)
Experiment: affinity purification with mass spectrometry; U2OS lysate (50 mM Tris-HCl pH 7.5, 150 mM NaCl, 5 mM EDTA) precipitated with anti-USP7 and protein A/G agarose, 4 °C; IgG as control; distinct SDS-PAGE band excised, in-gel tryptic digestion, QTOF MS

NLRP3 (from UniProt Q96P20 1-1036)
binding: binds
